Experimental data reported in the supplement of paper PMC3334620.
In all, about 33,000 sequences were measured (“E-score (-0.5 to 0.5)”: median about -8e-05, highest 2% from about 0.23 on). The list shows a part of the results.

Target: T1, Nrg2 (UniProt P38082)
T1 sequence: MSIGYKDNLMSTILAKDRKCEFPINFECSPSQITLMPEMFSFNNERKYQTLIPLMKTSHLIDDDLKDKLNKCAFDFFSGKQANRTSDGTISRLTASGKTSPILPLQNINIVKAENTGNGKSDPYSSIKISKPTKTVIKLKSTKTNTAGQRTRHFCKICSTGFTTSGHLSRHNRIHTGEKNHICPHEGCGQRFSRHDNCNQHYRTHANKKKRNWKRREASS
Experiment: PBM E-score (8-mer binding enrichment) (E-score (-0.5 to 0.5)); higher = stronger / more preferred TF binding
Settings: protein concentration: 100 nM; construct: GST-full length
Protocol: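 Universal 'all 10-mer' protein binding microarrays (Agilent AMADID 015681) probed with GST-tagged S. cerevisiae TFs (full-length or DBD) made by in vitro transcription/translation (PURExpress), about 100-200 nM. Bound TF was detected with fluorescent anti-GST. Each ungapped 8-mer (which stands for itself and its reverse complement) is scored by the PBM enrichment score (E-score), a modified Wilcoxon-Mann-Whitney statistic from -0.5 to +0.5, computed with the Universal PBM Analysis Suite. Scale: above 0.35 generally sequence-specific binding.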

Row | Sequence | PBM E-score
1 | GCACCAAA | 0.106
2 | ATCCAGAC | 0.0244
3 | GAAAACAC | 0.0782
4 | ATGGAACG | 0.0154
5 | AGTCAACG | -0.0331
6 | AGTTAATC | 0.0905
7 | AGTTGCGG | 0.228
8 | ACAGTTAA | 0.0947
9 | AGCCGTGA | 0.00802
10 | ACGCCCTA | -0.161
11 | GTTAATCA | 0.164
12 | ACGGGAGG | -0.198
13 | CAACGAAA | 0.0979
14 | TCTTACAA | -0.194
15 | ATTAGGAC | -0.0887
16 | GTAAACTA | 0.0694
17 | GCCGCTCA | -0.0694
18 | GCACCAGC | -0.0819
19 | CGGCCCTA | 0.127
20 | CCAAGTTC | -0.0364
21 | GTGTTCCA | -0.116
22 | ATTTCTTG | 0.159

Row | Sequence | PBM E-score
23 | AAGTCCAT | -0.0391
24 | GACGCAAC | -0.00802
25 | ATCCATCC | 0.124
26 | ACAAGGTC | -0.0117
27 | AAGCGGAA | -0.0181
28 | CATCATGC | 0.0406
29 | GTAAGCCA | -0.113
30 | GCACTTCA | 0.0324
31 | CGGATCTC | 0.00911
32 | CATCACCG | -0.133
33 | GAGCCACC | -0.345
34 | ATGCAAAA | 0.164
35 | TCTGAAAA | -0.101
36 | CATATAAA | 0.00613
37 | CTCTCGGA | 0.073
38 | CCTCGAAC | -0.0033
39 | AGTGAAAC | 0.0762
40 | CCCATATA | 0.177
41 | GGGACACA | 0.145
42 | CATTATGC | 0.0739
43 | CCCATCCG | -0.215
44 | ATATTCTC | 0.212

An excerpt of these results, as a markdown table:

| Row | Sequence | PBM E-score |
| --- | --- | --- |
| 35 | TCTGAAAA | -0.101 |
| 36 | CATATAAA | 0.00613 |
| 37 | CTCTCGGA | 0.073 |
| 38 | CCTCGAAC | -0.0033 |
| 39 | AGTGAAAC | 0.0762 |
| 40 | CCCATATA | 0.177 |

The list goes on.

Row | Sequence | PBM E-score
45 | CATATGAC | 0.0581
46 | GAGTTACA | 0.112
47 | CCTGGCGC | 0.123
48 | AGTTCACG | -0.16
49 | CCGAGAAG | -0.0215
50 | CCGACAAA | 0.123
51 | AAGTTCAC | -0.0392
52 | CGCTTCGC | -0.162
53 | CAACTCCC | 0.185
54 | CGGTGAGC | -0.158
55 | ATAGTGTC | 0.0487
56 | CCGCTCGA | 0.0954
57 | AACCGAAC | -0.107
58 | CGCAAGTA | 0.0376
59 | CCTGTCTA | 0.177
60 | AATGGACA | 0.086
61 | GCGGAGAA | 0.132
62 | TGTTATAA | 0.163
63 | CCTCGTGA | -0.115
64 | AGCTAGTG | 0.00386
65 | GTTAAGAA | -0.0145
66 | ATTCACGG | 0.0165

Row | Sequence | PBM E-score
67 | CCCTGTAC | 0.208
68 | CAACCCAC | 0.0583
69 | AACCCAAT | -0.0486
70 | GTAAAAGA | 0.0953
71 | ACCAAAGT | 0.014
72 | ACAGCTGG | -0.0493
73 | TTCCTCAA | -0.0689
74 | AACCAGTG | -0.0973
75 | CGAAGCAG | -0.0953
76 | GAAAGCGC | -0.00013
77 | GAACCTTC | 0.0279
78 | CTAATTTA | 0.0763
79 | CCTAGACG | -0.09
80 | CACTGCAG | 0.174
81 | ATACCACG | -0.0465
82 | AGATTCGC | 0.0138
83 | ATGGCGTG | 0.0903
84 | CGTGTACA | 0.11
85 | CACTTTAA | 0.0841
86 | ACCTTTTA | -0.23
87 | ATCCTTTG | 0.0405
88 | CCGCCGCG | -0.00074

Row | Sequence | PBM E-score
89 | CACTTTTC | 0.203
90 | GTATGCAC | 0.0116
91 | GATCGGCC | -0.0571
92 | CCTGGATA | -0.0382
93 | AAAATCCT | -0.0569
94 | ATGCCCGG | -0.0315
95 | ACCAGCTC | -0.0619
96 | CGTCAACG | -0.17
97 | TAAGTTAA | 0.123
98 | ACATCGCG | -0.0658
99 | CCTGCCGC | -0.148
100 | TCGGTAAA | 0.0351
101 | GATTGTGC | 0.103
102 | AGATACTC | 0.1
103 | ACTGACGA | 0.0428
104 | AGTCTCCG | -0.115
105 | GAAAAATA | 0.13
106 | AAGGACAT | -0.0854
107 | GCTGCCAC | -0.138
108 | GAGTACTC | 0.23
109 | GCAGTGTA | 0.0189
110 | TGGTGGAA | -0.0824
